# Measurements reported in PubChem BioAssay AID1508597 (Cure First, 2020)
# Screen: 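Survival screen with siRNA in ovarian cancer cells derived from patients, with or without rucaparib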 (primary screen)
# System: human ovarian carcinoma lines grown from tumours: OCI-P5x (papillary serous) and OCI-C5x (clear cell)
# Knock-down reagent: siRNA pool against human genes, 1.25 pmol siRNA per well
# Duration: 72 h or 96 h, depending on the cell culture
# Conditions: rucaparib 20 µM (about IC30) or vehicle, present until read-out
# Rucaparib or vehicle: Vehicle
# Cell line: OCI-C5x (clear cell)
# Read-out: 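Luminescent ATP-based viability assay read 72 or 96 h after transfection, depending on culture, given as normalised percent viability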
# Scale: viability, normalised: higher = more viable cells remaining
# Call rule: 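Active when normalised viability falls below 80 percent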
# Calls: active = viability under 80%; inactive = viability 80% or more
# Shown is an unselected part of the about 2,100 reagents, under one of the conditions tested. 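Calls flag viability under 80% in either arm, not effects specific to rucaparib; the reference for percent is not stated.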 Reagent sequences are not shown. Not stated in the record: the 100% reference.
target gene,technical replicate,"viability, normalised (%)",Outcome
PTK7,1,42.1,active
PTK7,2,47.4,active
PTK7,3,58.7,active
SMARCA1,1,26.2,active
SMARCA1,2,45.7,active
SMARCA1,3,36.5,active
FYN,1,65.8,active
FYN,2,42.3,active
FYN,3,56.8,active
EPHB1,1,65.9,active
EPHB1,2,69.5,active
EPHB1,3,64.9,active
MYOCD,1,26.4,active
MYOCD,2,28.6,active
MYOCD,3,41.5,active
BMP7,1,46.7,active
BMP7,2,35.2,active
BMP7,3,48.9,active
GGCT,1,63.7,active
GGCT,2,66.2,active
GGCT,3,59.3,active
HUS1,1,70.6,active
HUS1,2,67.5,active
HUS1,3,56.7,active
POLM,1,47.5,active
POLM,2,51.9,active
POLM,3,65.8,active
INO80C,1,72.9,active
INO80C,2,71.6,active
INO80C,3,72.1,active
ZDHHC1,1,55.1,active
ZDHHC1,2,58.4,active
ZDHHC1,3,70.2,active
CTPS2,1,49.8,active
CTPS2,2,59,active
CTPS2,3,69.6,active
FCSK,1,40.2,active
FCSK,2,50.9,active
FCSK,3,34.1,active

Copied from the entries so far for reference:
target gene,technical replicate,"viability, normalised (%)",Outcome
PTK7,1,42.1,active
PTK7,2,47.4,active
PTK7,3,58.7,active
SMARCA1,1,26.2,active
SMARCA1,2,45.7,active
